Among all 360,000 compounds or so, about 7,500 (2.1%) were called active. This list was built around the results that the source calls inconclusive (neither active nor inactive); the mix of calls is not that of the screen. The call rests on the fitted dose curve; in most records, active means well fitted inhibition curve with a large enough effect; inconclusive means small, poorly fitted or top-dose-only effect, or effect the other way; inactive means flat fitted curve, though single readings scatter. A potency beside an inconclusive call is a rough fit, not a confirmed value.
Assay: Nrf2 qHTS screen for inhibitors; further: nearly all actives have a fitted effect of over 60% in size
Details: A549 ARE-Fluc reporter, luciferase luminescence, 18-24 h; activity change, negative = inhibition: at 46 µM (top of the series)
Procedure, shortened: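 Nrf2 function is reported as luminescence of an ARE-controlled luciferase in A549 cells. Compounds were tested at several concentrations, and a CellTiter-Fluor read on the same wells flagged cytotoxicity.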
On the % scale 0 is the no-effect control and ±100 the full control effect; potency means the concentration at half of the fitted maximal effect.

Compound | Potency | activity change, negative = inhibition
CCCCNC1(C#N)CCN(Cc2ccccc2)CC1 | inconclusive: 25.9 µM [activator, partial curve, poor fit] | –
COc1ccc(-c2nnc3n2N=C(c2ccccc2OC)CS3)c(OC)c1 | – | inactive: 1.86%
C=CCn1c(SCC(=O)c2ccc(O)c(O)c2)nnc1-c1cccc(Cl)c1 | – | inactive: 14.7%
O=S(=O)(c1ccc(-c2cc(C(F)(F)F)on2)s1)N1CCN(c2ccc(F)cc2)CC1 | inconclusive: 0.92 µM [falling, full curve, poor fit] | –
CC1CN(S(=O)(=O)c2ccc(C(=O)Nc3nccs3)cc2)CC(C)O1 (centres undefined) | inconclusive: 29.1 µM [falling, single point] | –
COc1ccc(NC(=O)C2CCCN(c3ncnc4c3nc3n4CCCCC3)C2)c(OC)c1 (centres undefined) | inconclusive: 29.1 µM [activator, single point] | –
COc1cccc(-c2cc3onc(-c4ccccc4)c3c(=O)n2C)c1 | inconclusive: 3.66 µM [activator, partial curve] | –
CCOC(=O)c1c(C)oc2c1c(C=NCC1CCCO1)c(O)c1ccccc12 (centres undefined) | – | inactive: -0.701%
CCOc1ccc(Cl)cc1CNCCCSc1nc(C)cc(C)n1 | inconclusive: 2.31 µM [falling, full curve, poor fit] | –
S=C(Nc1ccc(Cl)c(Cl)c1)NC1CCN(Cc2ccccc2)CC1 | inconclusive: 20.6 µM [falling, single point] | –
CC(C)(C)OC(=O)NCCCC[C@H](NC(=O)c1nc[nH]c1C(=O)N[C@@H](CCCCNC(=O)OC(C)(C)C)C(=O)OC(C)(C)C)C(=O)OC(C)(C)C | inconclusive: 9.2 µM [falling, partial curve, poor fit] | –
O=C1CCCN1c1ccc(S(=O)(=O)Oc2ccc(Cl)cc2)cc1[N+](=O)[O-] | active: 7.31 µM | –
COC(=O)CCNC(=O)NC(CCC(C)C)c1c(-n2cccc2)sc2c1CCN(C)C2 (centres undefined) | – | inactive: 27%
Cc1ccccc1OCC(=O)NNC(=O)c1ccc2c(=O)n3c(nc2c1)CCC3 | – | inactive: 5.88%
COc1ccccc1-c1cc2nc(C)c(CCC(=O)O)c(C)n2n1 | active: 3.66 µM | –
COc1ccc(C(=O)/C=C/Nc2cccc(C)n2)cc1OC | inconclusive: 10.3 µM [activator, partial curve] | –
Cc1ccc2nc(-c3ccc(O)cc3)c(Nc3ccc(Cl)cc3)n2c1 | inconclusive: 32.6 µM [falling, single point] | –
Cc1cccc2sc(N3CCN(C(=O)c4cccs4)CC3)nc12 | inconclusive: 20.6 µM [falling, partial curve, poor fit] | –
COc1cc(NC(=O)c2cc3c(s2)-c2ccccc2OC3)cc(OC)c1OC | active: 20.6 µM | –

A different layout for some results above:

| Compound | Potency | activity change, negative = inhibition |
| --- | --- | --- |
| CCCCNC1(C#N)CCN(Cc2ccccc2)CC1 | inconclusive: 25.9 µM [activator, partial curve, poor fit] | – |
| COc1ccc(-c2nnc3n2N=C(c2ccccc2OC)CS3)c(OC)c1 | – | inactive: 1.86% |
| C=CCn1c(SCC(=O)c2ccc(O)c(O)c2)nnc1-c1cccc(Cl)c1 | – | inactive: 14.7% |
| O=S(=O)(c1ccc(-c2cc(C(F)(F)F)on2)s1)N1CCN(c2ccc(F)cc2)CC1 | inconclusive: 0.92 µM [falling, full curve, poor fit] | – |

— PubChem BioAssay AID504444 (National Center for Advancing Translational Sciences (NCATS), 2011)
